Drawing on the supplement of paper PMC4635364, this text covers neuronal differentiation score for 40 compounds.

Each structure is given as a SMILES string. Counter-ions that a name gives are not always drawn. This is one part of the list. Single values are uncertain here, since repeats match poorly.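 Human fetal ventral-midbrain neural progenitor line ReNCell VM, differentiated without mitogens. Images stained for doublecortin (early neurons) or tyrosine hydroxylase (dopaminergic neurons) were scored by blinded raters against untreated wells (0 = no change). Repeats and both raters were averaged, and compounds averaging 2 or higher were picked as hits for retesting.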

For one assay, the system named is ReNCell VM. Kind of assay: neuronal differentiation score (DCX+ cell fraction vs untreated, manual image score) (score (-3 to 3)); higher = more neuronal differentiation. The following applies: library: LOPAC; 2 uM; 2 weeks.
Consider `CCCCCCCCCCCCCCCC(=O)OC(CC(=O)O)C[N+](C)(C)C` (racemic) [Palmitoyl-DL-Carnitine chloride], for which the neuronal differentiation score is active: 2.

For `CCC(=O)N1CCN(C(=O)c2ccccc2)CC1`, the neuronal differentiation score was inactive: 0.

In the case of `N=C(N)SCCc1ccc(CCSC(=N)N)cc1` [1,4-PBIT dihydrobromide], the neuronal differentiation score was inactive: 0.

In the case of `CO[C@@]1(NC(=O)CSCC#N)C(=O)N2C(C(=O)O)=C(CSc3nnnn3C)CS[C@@H]21` [Cefmetazole sodium], the neuronal differentiation score was inactive: 0.

As to `N[C@@H](Cc1c[nH]cn1)C(=O)O` [L-Histidine hydrochloride], the neuronal differentiation score is inactive: 0.

For `NOCC(=O)O` [O-(Carboxymethyl)hydroxylamine hemihydrochloride], the neuronal differentiation score was inactive: 0.

Staying with this assay, now noted: library: Phytochemical; 2 uM; 2 weeks.
As for `CCOC(=O)Oc1c(OC)cc(C(=O)O[C@@H]2C[C@@H]3CN4CCc5c([nH]c6cc(OC)ccc56)[C@H]4C[C@@H]3[C@H](C(=O)OC)[C@H]2OC)cc1OC` [Syrosingopine], the neuronal differentiation score is inactive: 0.

For the compound `CN1CC[C@]23c4ccccc4N[C@H]1[C@]21CCN(C)[C@H]3Nc2ccccc21` [Calycanthine], the neuronal differentiation score was inactive: 1.

On to `OC[C@H]1O[C@@H](n2cnc3c(NCc4ccco4)ncnc32)[C@H](O)[C@@H]1O` [Kinetin riboside], for which the neuronal differentiation score was inactive: 0.

Staying with this assay, now noted: library: Prestwick; 2 uM; 2 weeks.
With `CCn1cc(C(=O)O)c(=O)c2cc(F)c(N3CCN(C)CC3)cc21` [Pefloxacine], the neuronal differentiation score was inactive: 0.

With `COC(=O)C1=C(C#N)NC(C)=C(C(=O)OC(C)C)C1c1cccc([N+](=O)[O-])c1` (stereo not given) [Nilvadipine], the neuronal differentiation score was inactive: 0.

On to `CCOc1ccc(Cc2nccc3cc(OCC)c(OCC)cc23)cc1OCC` [Ethaverine hydrochloride], for which the neuronal differentiation score was inactive: 0.

For `CCc1oc2ccccc2c1C(=O)c1cc(Br)c(O)c(Br)c1` [Benzbromarone], the neuronal differentiation score is inactive: 0.

As for `CO[C@@H]1[C@@H](OC(N)=O)[C@@H](O)[C@H](Oc2ccc3c(O)c(NC(=O)c4ccc(O)c(CC=C(C)C)c4)c(=O)oc3c2C)OC1(C)C` [Novobiocin sodium salt], the neuronal differentiation score is inactive: 0.

Consider `COc1ccc(C(Cl)=C(c2ccc(OC)cc2)c2ccc(OC)cc2)cc1` [Chlorotrianisene], for which the neuronal differentiation score was inactive: 0.

For `CCN(CCCCOC(=O)c1ccc(OC)c(OC)c1)C(C)Cc1ccc(OC)cc1` (stereo not given) [Mebeverine hydrochloride], the neuronal differentiation score was inactive: 0.

As for `C[C@@H]1CN(c2c(F)c(N)c3c(=O)c(C(=O)O)cn(C4CC4)c3c2F)C[C@H](C)N1` [Sparfloxacin], the neuronal differentiation score was inactive: 0.

Staying with this assay, now noted: library: Spectrum; 2 uM; 2 weeks.
For the compound `CN1C(C(=O)Nc2ccccn2)=C(O)c2ccccc2S1(=O)=O`, the neuronal differentiation score was inactive: 0.

As to `CC(C)(Oc1ccc(CCNC(=O)c2ccc(Cl)cc2)cc1)C(=O)O`, the neuronal differentiation score was inactive: 0.

Regarding `OCCOCCN1CCN(C(c2ccccc2)c2ccc(Cl)cc2)CC1` (stereo not given), the neuronal differentiation score was inactive: 0.

With `O=C1CN2Cc3c(ccc(Cl)c3Cl)N=C2N1`, the neuronal differentiation score is inactive: 0.

As to `O=C(O)C(S)C(S)C(=O)O` (stereo not given), the neuronal differentiation score was inactive: 0.

Regarding `OC[C@@H](O)[C@@H](O[C@@H]1O[C@H](CO)[C@@H](O)[C@H](O)[C@H]1O)[C@H](O)[C@@H](O)CO`, the neuronal differentiation score is inactive: 0.

Turning to `CC(=O)OCC(=O)[C@@]1(OC(C)=O)[C@@H](C)C[C@H]2[C@@H]3C[C@H](F)C4=CC(=O)C=C[C@]4(C)[C@@]3(F)[C@@H](O)C[C@@]21C`, the neuronal differentiation score was inactive: 0.

`COC1=CC(=O)C[C@@H](C)[C@]12Oc1c(Cl)c(OC)cc(OC)c1C2=O`: the neuronal differentiation score was inactive: 0.

As for `C[C@H]1c2cccc(O)c2C(=O)C2=C(O)[C@]3(O)C(=O)C(C(N)=O)=C(O)[C@@H](N(C)C)[C@@H]3[C@@H](O)[C@@H]21`, the neuronal differentiation score was active: 3.

With `CO/N=C(\C(=O)N[C@@H]1C(=O)N2C(C(=O)O)=C(CSC(=O)c3ccco3)CS[C@H]12)c1csc(N)n1`, the neuronal differentiation score was inactive: 0.

Consider `O=C(O)CSCC(=O)NC1CCSC1=O` (stereo not given), for which the neuronal differentiation score is inactive: 0.

With `CC(C)Oc1ccc2c(=O)c(-c3ccccc3)coc2c1`, the neuronal differentiation score is inactive: 0.

With `Cn1c(=O)[nH]c2ncn(C)c2c1=O`, the neuronal differentiation score is inactive: 0.

`CN(C)CCCOc1nn(Cc2ccccc2)c2ccccc12`: the neuronal differentiation score is inactive: 0.

Regarding `Cc1cc(C(C)(C)CC(C)(C)C)ccc1OCCOCC[N+](C)(C)Cc1ccccc1`, the neuronal differentiation score was inactive: 0.

With `CC1Cc2ccccc2N1NC(=O)c1ccc(Cl)c(S(N)(=O)=O)c1` (stereo not given), the neuronal differentiation score is inactive: 0.

Still in this assay, the particulars now being: library: Tocriscreen; 2 uM; 2 weeks.
As for `COc1cc2c(Nc3ccc(NC(=O)c4ccccc4)cc3)ncnc2cc1OCCCN1CCOCC1`, the neuronal differentiation score was inactive: 0.

For the compound `O=c1[nH]c2cc(C(F)(F)F)c(N3CCOCC3)cc2n(CP(=O)(O)O)c1=O`, the neuronal differentiation score was inactive: 0.

Turning to `N[C@@H](CC(=O)Nc1ccc(Oc2cc(F)c(F)cc2Br)cc1)C(=O)O`, the neuronal differentiation score was inactive: 0.

In the case of `Cc1cc(NC(=O)Nc2ccc(N(C)C)cc2)c2cc(F)cc(F)c2n1`, the neuronal differentiation score is inactive: 0.

As to `NC(=O)c1ccc(-c2nc(-c3ccccn3)c(-c3ccc4c(c3)OCO4)[nH]2)cc1`, the neuronal differentiation score is inactive: 0.

For `O=C(O)CN1C(=O)c2cccc3cccc(c23)C1=O` [Alrestatin], the neuronal differentiation score was inactive: 0.

As to `CC#CCOC(=O)C1=CCCN(C)C1` [Arecaidine but-2-ynyl ester tosylate], the neuronal differentiation score was inactive: 0.
